In patent US20240425514A1, “ALSTONINE DERIVATIVES AND SALTS THEREOF” (priority 2021, published 2024):
At least one compound was matched to its structure with a doubt left.

What was measured:
[1] = test system: zebrafish; assay: Social preference test in zebrafish, MK-801 model; assay type: in vivo, Danio rerio
Experimental: (§1) Here, the ability of alstonine salts to reverse schizophrenia-like symptoms produced by MK-801 in zebrafish was evaluated. The atypical antipsychotic olanzapine was used as a comparison.
(§2) Experiments were performed using male and female (50:50 ratio) short-fin wild-type zebrafish (4-month-old, 300-500 mg). Adult animals were obtained from a local commercial supplier (Delphis, R S, Brazil). The animals were maintained at Instituto de Ciências Básicas da Saúde in a light/dark cycle of 14/10 h with lights on at 7:00 a.m for at least two weeks before tests. Fish were kept in 40-L (30×46×33 cm) unenriched glass tanks with non-chlorinated water at a maximum density of five animals per liter. Tank water satisfied the controlled conditions required for zebrafish (26±2° C.; pH 7.0±0.3; dissolved oxygen at 7.0±0.4 mg/L; total ammonia at <0.01 mg/L; total hardness at 5.8 mg/L; alkalinity at 22 mg/L CaCO3; conductivity of 1,500-1,600 μS/cm) and was constantly filtered by mechanical, biological, and chemical filtration systems. Food was provided twice a day as commercial flake food (Poytara®, SP, Brazil) plus brine shrimp (Artemia salina). The sex of the animals was confirmed after euthanasia by dissecting and analyzing the gonads. For all experiments, no sex effects were observed, so data were pooled together. Animals were euthanized by hypothermic shock according to the AVMA Guidelines for the Euthanasia of Animals (Leary and Johnson, 2020).
(§3) MK-801 (dizocilpine) and sulpiride were purchased from Sigma-Aldrich (St. Louis, MO, USA); olanzapine was purchased from Selleck Chemicals. Alstonine hydrochloride, alstonine benzoate, and alstonine benzensulfonate were prepared as described herein. MK-801, olanzapine, and alstonine hydrochloride were dissolved in distilled water, with sonication in an ultrasonic bath for the latter. Sulpiride, alstonine benzoate, and alstonine benzensulfonate were dissolved in 100% DMSO; stock solutions were diluted to achieve a final DMSO concentration of 1% for the highest concentration. MK-801 solutions were freshly prepared, while alstonine stock solutions were kept refrigerated for up to five days. Exposure solutions were renovated halfway through the experiment, with a maximum of four fish exposed to the same solution.
Different sets of animals were used for each experiment, totaling 600 zebrafish in the study (plus 200 zebrafish serving as stimulus animals). Animals were individually exposed to water or alstonine solutions at 2.5, 5 or 10 mg/L in 500-mL beakers containing 200-mL solution for 20 min (n=15). […]
The protocol for the social preference test in zebrafish followed the method described by Benvenutti et al. (2021). […] Animals were habituated to the apparatus for 2 min and then analyzed for the last 5 min. […]

[2] = test system: zebrafish; assay: Open tank test in zebrafish, MK-801 model; assay type: in vivo, Danio rerio; details: then water or MK-801 5 μM
Experimental: as §1, §2
as §3, with “solution. […]” for “solution.”
The protocol for the open tank test followed the method described by Benvenutti et al. (2021). Immediately after the social preference test, animals were placed in the center of the open tank arena and recorded for 10 min. […] The following outcomes were automatically scored using ANY-Maze software (Stoelting Co., Wood Dale, IL, USA): total distance traveled, absolute turn angle, number of clockwise rotations, and immobility time. […]

## Cc1cc2c(s1)Nc1ccccc1N=C2N1CCN(C)CC1 [Olanzapine, olanzapine]
[1]; drug pretreatment, then water or MK-801 5 μM
  overall effect on all parameters of the social preference test: potentiated MK-801 effects in the SP
[1]; fish exposed 20 min to drug, then 20 min to water or MK-801 5 μM, main effect of drug pretreatment, two-way ANOVA
  time in the zone of interaction: nonspecifically reduced the time in the zone of interaction at the highest concentration
[1]; fish exposed 20 min to drug, then water or MK-801 5 μM, main effect of drug pretreatment
  distance traveled: increased the distance traveled at the lowest concentration
[1]; interaction between drug pretreatment and MK-801 5 μM, Bonferroni post hoc
  number of crossings: potentiated the effect of MK-801 at the lowest and intermediate concentrations
[2]; drug pretreatment 20 min, interaction with MK-801, post hoc
  immobility time: prevented the MK-801-induced increase in immobility time
[2]; drug pretreatment 20 min, main effect of drug
  distance traveled: at all concentrations increased distance traveled
[2]; drug pretreatment 20 min, main effect or interaction with MK-801
  clockwise rotations: increased
[2]; drug pretreatment
  overall effect on the analyzed parameters of the open tank test: presented effects in the opposite direction of MK-801
